Our source for the binding values is paper PMC5738357.

Sequences of proteins named here, by UniProt entry; tags and fusion partners are left off.
UniProt P42945: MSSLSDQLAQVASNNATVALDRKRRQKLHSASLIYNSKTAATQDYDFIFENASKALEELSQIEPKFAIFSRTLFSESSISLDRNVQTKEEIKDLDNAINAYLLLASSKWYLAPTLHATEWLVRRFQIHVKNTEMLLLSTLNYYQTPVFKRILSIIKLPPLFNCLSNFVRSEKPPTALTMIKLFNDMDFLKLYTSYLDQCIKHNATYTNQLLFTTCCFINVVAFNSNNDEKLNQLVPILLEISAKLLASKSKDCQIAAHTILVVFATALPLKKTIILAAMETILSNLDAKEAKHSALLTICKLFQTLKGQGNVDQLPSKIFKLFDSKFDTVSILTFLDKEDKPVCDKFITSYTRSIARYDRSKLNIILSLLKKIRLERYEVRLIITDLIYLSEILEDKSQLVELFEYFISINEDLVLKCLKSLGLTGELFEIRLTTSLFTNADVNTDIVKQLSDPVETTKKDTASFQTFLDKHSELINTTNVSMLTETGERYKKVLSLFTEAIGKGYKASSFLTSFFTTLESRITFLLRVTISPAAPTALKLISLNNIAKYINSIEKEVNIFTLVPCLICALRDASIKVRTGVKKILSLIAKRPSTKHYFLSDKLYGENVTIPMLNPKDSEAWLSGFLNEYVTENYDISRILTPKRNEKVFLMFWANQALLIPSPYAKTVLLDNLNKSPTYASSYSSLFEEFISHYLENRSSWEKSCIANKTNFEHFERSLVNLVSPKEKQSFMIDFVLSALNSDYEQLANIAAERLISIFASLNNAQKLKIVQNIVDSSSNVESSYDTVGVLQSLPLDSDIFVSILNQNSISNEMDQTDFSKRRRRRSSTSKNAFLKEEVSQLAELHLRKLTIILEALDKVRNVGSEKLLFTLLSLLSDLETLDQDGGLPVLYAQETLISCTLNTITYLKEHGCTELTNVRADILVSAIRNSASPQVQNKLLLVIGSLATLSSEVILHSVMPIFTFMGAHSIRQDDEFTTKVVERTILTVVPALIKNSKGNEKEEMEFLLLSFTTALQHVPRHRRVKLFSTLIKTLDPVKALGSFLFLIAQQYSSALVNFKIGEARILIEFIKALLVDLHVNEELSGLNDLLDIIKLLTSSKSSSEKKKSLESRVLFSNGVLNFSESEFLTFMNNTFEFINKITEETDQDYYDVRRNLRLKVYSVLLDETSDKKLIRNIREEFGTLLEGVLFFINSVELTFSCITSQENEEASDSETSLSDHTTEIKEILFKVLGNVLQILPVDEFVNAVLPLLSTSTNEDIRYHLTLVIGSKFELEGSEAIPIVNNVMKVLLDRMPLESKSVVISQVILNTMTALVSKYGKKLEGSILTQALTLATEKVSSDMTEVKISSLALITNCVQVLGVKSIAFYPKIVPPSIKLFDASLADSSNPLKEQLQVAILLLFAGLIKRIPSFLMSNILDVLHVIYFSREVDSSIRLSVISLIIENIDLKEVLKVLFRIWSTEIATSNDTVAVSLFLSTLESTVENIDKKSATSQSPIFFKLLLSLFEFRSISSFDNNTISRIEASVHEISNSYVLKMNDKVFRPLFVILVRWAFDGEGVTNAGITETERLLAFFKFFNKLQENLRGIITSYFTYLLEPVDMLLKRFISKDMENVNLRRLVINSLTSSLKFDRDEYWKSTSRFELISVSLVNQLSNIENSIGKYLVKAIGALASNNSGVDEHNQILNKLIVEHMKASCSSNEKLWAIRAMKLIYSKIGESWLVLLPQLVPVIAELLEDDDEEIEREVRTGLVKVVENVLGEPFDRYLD
UniProt Q05022: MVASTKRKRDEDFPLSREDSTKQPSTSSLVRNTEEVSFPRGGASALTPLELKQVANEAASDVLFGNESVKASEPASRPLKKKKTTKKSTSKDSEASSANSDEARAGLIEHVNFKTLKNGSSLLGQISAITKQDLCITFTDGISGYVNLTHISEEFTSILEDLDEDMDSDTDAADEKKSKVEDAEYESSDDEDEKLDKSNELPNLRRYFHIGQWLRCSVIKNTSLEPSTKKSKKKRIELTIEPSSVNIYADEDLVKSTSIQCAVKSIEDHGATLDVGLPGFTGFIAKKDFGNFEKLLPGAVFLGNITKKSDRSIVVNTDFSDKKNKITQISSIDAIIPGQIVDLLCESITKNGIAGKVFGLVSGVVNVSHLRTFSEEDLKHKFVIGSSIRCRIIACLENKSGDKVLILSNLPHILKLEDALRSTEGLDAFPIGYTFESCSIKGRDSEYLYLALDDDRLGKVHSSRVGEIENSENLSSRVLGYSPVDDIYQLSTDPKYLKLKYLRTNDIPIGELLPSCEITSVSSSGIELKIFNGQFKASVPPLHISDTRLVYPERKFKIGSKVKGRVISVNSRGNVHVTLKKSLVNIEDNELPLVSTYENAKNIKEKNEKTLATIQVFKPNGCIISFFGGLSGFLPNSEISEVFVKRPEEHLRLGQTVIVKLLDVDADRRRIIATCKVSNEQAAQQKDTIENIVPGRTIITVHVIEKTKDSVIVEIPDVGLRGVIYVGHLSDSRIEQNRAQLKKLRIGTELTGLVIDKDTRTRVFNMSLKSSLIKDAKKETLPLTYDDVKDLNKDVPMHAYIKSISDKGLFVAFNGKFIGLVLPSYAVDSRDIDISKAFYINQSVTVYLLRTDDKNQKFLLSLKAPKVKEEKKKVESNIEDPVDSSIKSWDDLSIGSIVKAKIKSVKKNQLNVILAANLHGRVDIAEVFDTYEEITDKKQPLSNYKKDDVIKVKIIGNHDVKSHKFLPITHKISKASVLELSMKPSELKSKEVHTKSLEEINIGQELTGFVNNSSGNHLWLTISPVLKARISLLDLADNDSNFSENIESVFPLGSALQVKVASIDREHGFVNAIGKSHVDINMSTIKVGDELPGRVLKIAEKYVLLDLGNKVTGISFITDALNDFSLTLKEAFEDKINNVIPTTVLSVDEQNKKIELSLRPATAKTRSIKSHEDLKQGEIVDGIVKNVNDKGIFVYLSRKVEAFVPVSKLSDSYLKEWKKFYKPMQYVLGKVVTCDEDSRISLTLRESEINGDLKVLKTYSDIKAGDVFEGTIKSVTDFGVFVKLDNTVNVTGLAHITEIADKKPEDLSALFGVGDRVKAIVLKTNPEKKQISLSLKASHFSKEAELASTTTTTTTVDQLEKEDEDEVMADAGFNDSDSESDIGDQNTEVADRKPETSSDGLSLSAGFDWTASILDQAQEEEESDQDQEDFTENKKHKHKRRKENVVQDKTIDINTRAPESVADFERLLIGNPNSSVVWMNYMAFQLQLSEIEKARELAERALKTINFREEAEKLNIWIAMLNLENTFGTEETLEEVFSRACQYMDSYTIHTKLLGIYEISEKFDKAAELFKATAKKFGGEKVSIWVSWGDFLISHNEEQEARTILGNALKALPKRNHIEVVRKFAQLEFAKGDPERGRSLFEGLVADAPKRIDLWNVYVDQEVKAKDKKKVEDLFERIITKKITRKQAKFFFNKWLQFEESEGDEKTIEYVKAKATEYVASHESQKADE

These are yes or no findings as the source states them, for the method shown. Binding seen in cells or lysates may run through a third protein. Some entries that bind do so weakly or less than the wild type.

Test [1] deals with T1, scEnp1-FTpA (S. cerevisiae) (UniProt P38333).
T1 sequence: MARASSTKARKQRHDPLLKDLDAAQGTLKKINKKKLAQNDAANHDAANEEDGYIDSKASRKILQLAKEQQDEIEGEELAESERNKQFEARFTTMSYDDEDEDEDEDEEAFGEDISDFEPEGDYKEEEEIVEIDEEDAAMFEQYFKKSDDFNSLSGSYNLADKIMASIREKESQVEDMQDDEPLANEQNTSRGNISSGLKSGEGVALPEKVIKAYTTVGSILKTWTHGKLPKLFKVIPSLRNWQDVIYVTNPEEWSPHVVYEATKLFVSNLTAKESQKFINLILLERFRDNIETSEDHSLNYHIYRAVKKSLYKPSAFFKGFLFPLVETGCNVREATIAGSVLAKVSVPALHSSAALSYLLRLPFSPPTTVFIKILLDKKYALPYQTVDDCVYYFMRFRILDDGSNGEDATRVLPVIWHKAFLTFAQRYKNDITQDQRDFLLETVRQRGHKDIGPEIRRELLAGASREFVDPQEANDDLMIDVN
Put plainly: co-sedimentation; Enp1-FTpA tandem affinity-purified from Dim2-expressing or Dim2-depleted cells, eluate separated by sucrose gradient centrifugation (Supplementary Fig. 2b).

The target of test [2] is T2, Ltv1 bait (yeast (S. cerevisiae)) (UniProt P34078).
T2 sequence: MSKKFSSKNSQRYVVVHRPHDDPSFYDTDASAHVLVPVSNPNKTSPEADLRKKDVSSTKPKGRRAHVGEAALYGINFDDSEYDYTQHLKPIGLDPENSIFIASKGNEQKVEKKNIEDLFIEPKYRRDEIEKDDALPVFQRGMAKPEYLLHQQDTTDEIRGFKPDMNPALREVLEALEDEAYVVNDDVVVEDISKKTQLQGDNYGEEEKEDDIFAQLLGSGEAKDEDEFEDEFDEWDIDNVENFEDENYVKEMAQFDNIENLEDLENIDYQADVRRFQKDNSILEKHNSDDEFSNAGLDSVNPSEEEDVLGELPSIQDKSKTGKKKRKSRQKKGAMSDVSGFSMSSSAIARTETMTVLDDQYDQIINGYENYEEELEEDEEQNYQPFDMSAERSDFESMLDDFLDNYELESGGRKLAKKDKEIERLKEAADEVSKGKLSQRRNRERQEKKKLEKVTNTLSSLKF
In words: co-IP; late pre-40S particles affinity-purified via the Ltv1 bait from yeast expressing Nob1 or Nob1ΔMID (Supplementary Fig. 3d; detection not shown).

Test [3] has as its target scUtp10-FTpA (S. cerevisiae) (UniProt P42945). In words: co-IP; tandem affinity-purification of FTpA-tagged yeast baits (IgG Sepharose, TEV, Flag agarose); western blotting of the Flag eluates; cells with or without depletion of Dim2 or Krr1 where told.

As to Rrp5 (from UniProt Q05022 1-1729), in test [1], the binding result was “binds”. Consider “Utp10 (endogenous, yeast) (from UniProt P42945 1-1769)”, for which the binding entry in test [1] was “binds”.

B1: Nob1 (wild-type reference of Supplementary Fig. 3d) (protein, UniProt Q08444 1-459)
chain: MTENQTAHVRALILDATPLITQSYTHYQNYAQSFYTTPTVFQEIKDAQARKNLEIWQSLGTLKLVHPSENSIAKVSTFAKLTGDYSVLSANDLHILALTYELEIKLNNGDWRLRKKPGDALDASKADVGTDGKQKLTEDNKKEEDSESVPKKKNKRRGGKKQKAKREAREAREAENANLELESKAEEHVEEAGSKEQICNDENIKESSDLNEVFEDADDDGDWITPENLTEAIIKDSGEDTTGSLGVEASEEDRHVALNRPENQVALATGDFAVQNVALQMNLNLMNFMSGLKIKRIRNYMLRCHACFKIFPLPKDGKPKHFCASCGGQGTLLRCAVSVDSRTGNVTPHLKSNFQWNNRGNRYSVASPLSKNSQKRYGKKGHVHSKPQENVILREDQKEYEKVIKQEEWTRRHNEKILNNWIGGGSADNYISPFAITGLKQHNVRIGKGRYVNSSKRRS
On to B1, for which the binding result in test [2] is “binds”.

B2: Rrp12 (protein, UniProt Q12754 1-1228)
chain: MDQDKVAFLLELEDKLAKIRSQVNSKLENQKHIAIILTAVEENIAGQATNDVSKNIVNYIISFMSLLDQAVDPSTHEIKDIQLASSSTYLLDLIFHYSPKVLLRSKFSEILTKIAPCITAEKANAPLIRAAIGCLESLLIAQDAQAWNNTYDLNVTPKRGLQGILELSLDVRPKVRKRALDAVHAVLLNPPVAPTAEHVAAVFVADFCDKQLAGILNDLSNLSNKQLKAQKTKEDINASVMRSLRLITSVVSTGQWPSSQIEPLCDVLLGVTKSSEQYLVSASFECFESMFKTMAETTISSGLAENKYLRVLDTIFALKPSNVDTLLTKSWIAVVIKGMSTYATHQPLKALRKIPGVFHIMCTYLASETPEVYQAASQCLISILSESVKDDLLLYTPSVDEKVFKNVDEIISQIAKTFIDFLSIRYSHCSREILKILVAAFNKFRYRSNPHFLKSLKIVDTWRVNEEQFMDLRNEIELVIGASISAMGPEMILAEAPLNLDNPSSERPGRAWLLPLIRDYTKNANLATFQNELAPYIKSFQSKFDKVPEESIQLRVFQTIVDQIWSTLPRFCELPMDLRESFTDEFASELSSLLYSEVELRTTICHALKVLAESNVSYAEESSSHNVLLLQRFPISEAQKNIEYLSTKSTNLLAVLFNVYTQTTPNARSYILETIDQYLKITSKEDLEKTFNNVCGLLKNSMNEESSGNVNKEKKKPQLTATLLDLIICMITYLPVSSYSALFSMFSLTVNSADALIQKRAYRIITKLSELKSGSTAVAQFISDIENVMVDSASSVQTSAKAARLTAIKTIVELLPLDHLDFIVRTVAEVILSTKDVNEKSRETAFDTLICMGRKMNEPNGIIKLFQIPGYDPTTPDQSSSISEFFKIISAGLIGESQHMVSSSITGYACLVFEFKNELDSGILMDIYDTIELYLTSNSREIVKSAIGFTKVCVLGLPEELMRPKVPELLLKLLRWSHEHTGHFKAKVKHIIERLIRRFGYDYIEANFPEEDRRLLTNIRKMRNRNKRKDEEVTTGVSDVAATKGSRFMSAFDEAVYGSDEENDNGSDQEENVAGGKMKNGAKQFIVESGDNPLDLLDSQTLAHISSTRPKKFNKNQNRARFNDDAFNFDSEGKLVVKGQPKPSTNVDDPLSAVTSGINAYLEAVKSGPVRGQRNKLKFRKNGKDSDEFGDDDDGEKDSRLMRGRVNQGNKIGKHNKKGPKFKSRKKL
Consider B2, for which the binding result in test [1] is listed as “binds”.

B3: Tsr1 (protein, UniProt Q07381 1-788)
chain: MAGHSHRSSLKNGHKSYKSKHASKGALKRLYKGKVEKEPVGTGKPDKQVSKLQRKNKAKQLRAQRILDSIENRKLFEGKNGAAKIITIVPLVNDLDPLDILYKLLKCADDEGIMVQEVDSKRIFNVHIKKFKSNLKIIIPDMTNFLNILDCAKVADFVVFGLSGVQEVDEEFGEQIIRALELQGIASYIGVISNLSAVHEKEKFQLDVKQSLESYFKHFFPSEERVYNLEKNSDALNVLRTLCQRLPRSINWRDNRGYVVADFVDFVETSPDSGDLVIEGTVRGIGFNANRLVHIPDFGDFQLNKIEKISESSQKRKIIKEKATDSLSLELDLQTVFESNMNRDTLDEYAPEGTEDWSDYDEDFEYDGLTTARYDDHGFLPGREQTSKKAAVPKGTSDYQAKWYLDDVIDANEEEEAEQTNGKDETMMEIDDEMMVEQDNEEVAGDEEYDIEDNEGFEELSPEEEERQLREFRDMEKEDREFPDEIELEPSESAIERLKRYRGLKNLYNCDWQVDEKDPSSPAEWKRLLRIGNYKNTKNRIIKETKNEAQAIAGDRIRMFIRFPKFLLEKIQDPKQLLFAVYGLLLHEHKNAVVNFSLQRWEQYDKPVPSQEPIVVQYGVRRYTIQPLFSQGSNSPNNVHKYERFLHPDTVSVATCIAPVDFTQSPAIFFKPSPTDAKNIELIGHGTFLNADHSRILAKRAILTGHPFRFHKTVVTVRYMFFRPEDVEWFKSIPLFTKSGRSGFIKESLGTHGYFKATFDGKLSAQDVVAMSLYKRMWPMPSLPWNGM
Turning to B3, in test [1], the binding entry is listed as “binds”.

B4: Dis3 (protein, UniProt Q08162 1-1001)
chain: MSVPAIAPRRKRLADGLSVTQKVFVRSRNGGATKIVREHYLRSDIPCLSRSCTKCPQIVVPDAQNELPKFILSDSPLELSAPIGKHYVVLDTNVVLQAIDLLENPNCFFDVIVPQIVLDEVRNKSYPVYTRLRTLCRDSDDHKRFIVFHNEFSEHTFVERLPNETINDRNDRAIRKTCQWYSEHLKPYDINVVLVTNDRLNREAATKEVESNIITKSLVQYIELLPNADDIRDSIPQMDSFDKDLERDTFSDFTFPEYYSTARVMGGLKNGVLYQGNIQISEYNFLEGSVSLPRFSKPVLIVGQKNLNRAFNGDQVIVELLPQSEWKAPSSIVLDSEHFDVNDNPDIEAGDDDDNNESSSNTTVISDKQRRLLAKDAMIAQRSKKIQPTAKVVYIQRRSWRQYVGQLAPSSVDPQSSSTQNVFVILMDKCLPKVRIRTRRAAELLDKRIVISIDSWPTTHKYPLGHFVRDLGTIESAQAETEALLLEHDVEYRPFSKKVLECLPAEGHDWKAPTKLDDPEAVSKDPLLTKRKDLRDKLICSIDPPGCVDIDDALHAKKLPNGNWEVGVHIADVTHFVKPGTALDAEGAARGTSVYLVDKRIDMLPMLLGTDLCSLKPYVDRFAFSVIWELDDSANIVNVNFMKSVIRSREAFSYEQAQLRIDDKTQNDELTMGMRALLKLSVKLKQKRLEAGALNLASPEVKVHMDSETSDPNEVEIKKLLATNSLVEEFMLLANISVARKIYDAFPQTAMLRRHAAPPSTNFEILNEMLNTRKNMSISLESSKALADSLDRCVDPEDPYFNTLVRIMSTRCMMAAQYFYSGAYSYPDFRHYGLAVDIYTHFTSPIRRYCDVVAHRQLAGAIGYEPLSLTHRDKNKMDMICRNINRKHRNAQFAGRASIEYYVGQVMRNNESTETGYVIKVFNNGIVVLVPKFGVEGLIRLDNLTEDPNSAAFDEVEYKLTFVPTNSDKPRDVYVFDKVEVQVRSVMDPITSKRKAELLLK
With B4, the binding result in test [1] is “binds”.

B5: Rps5 (protein, UniProt P26783 1-225)
chain: MSDTEAPVEVQEDFEVVEEFTPVVLATPIPEEVQQAQTEIKLFNKWSFEEVEVKDASLVDYVQVRQPIFVAHTAGRYANKRFRKAQCPIIERLTNSLMMNGRNNGKKLKAVRIIKHTLDIINVLTDQNPIQVVVDAITNTGPREDTTRVGGGGAARRQAVDVSPLRRVNQAIALLTIGAREAAFRNIKTIAETLAEELINAAKGSSTSYAIKKKDELERVAKSNR
With B5, the binding result in test [3] is reported as “binds”.

B6: Rps8 (protein, UniProt P0CX39 1-200)
chain: MGISRDSRHKRSATGAKRAQFRKKRKFELGRQPANTKIGAKRIHSVRTRGGNKKYRALRIETGNFSWASEGISKKTRIAGVVYHPSNNELVRTNTLTKAAIVQIDATPFRQWFEAHYGQTLGKKKNVKEEETVAKSKNAERKWAARAASAKIESSVESQFSAGRLYACISSRPGQSGRCDGYILEGEELAFYLRRLTAKK
Consider B6, for which the binding result in test [3] was “binds”.
